# Assay results reported in the supplement of paper PMC10727501.
# This is one part of the list. This data set is noisy: repeats of one test often differ as much as different tests do.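 Free-swimming zebrafish larvae were scored for O-bend response probability to dark flashes (naive: first five; training: remaining flashes of four 60-flash blocks; test: later 60-flash block) and for turning toward alternating leftward/rightward LED motion (OMR). Six treated larvae were compared with sixty 0.1% DMSO controls; |SSMD|≥2 defined a hit.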
# System: Danio rerio larvae (5 dpf, TLF)
# Test: Prob-Naive (SSMD vs DMSO vehicle); higher = higher than vehicle (e.g. higher dark-flash O-bend response probability, or better optomotor performance)
# Conditions: 10 µM; pre-incubation: 30-90 min
row,SMILES,Prob-Naive
1,Oc1ccc(OCc2ccccc2)cc1 [Monobenzone],-0.585
2,CCCCNc1ccc(C(=O)OCCN(C)C)cc1.Cl [Tetracaine HCl],0.536
3,CC(C)NCC(O)COc1ccc(CCOCC2CC2)cc1 (stereo not given) [Betaxolol],-0.171
4,COc1cc2ncnc(Nc3ccc(O)c(Br)c3)c2cc1OC,0.319
5,CO/N=C(/C(=O)N[C@H]1C(=O)N2C(C(=O)O)=C(Cn3ccc(=N)n3CCO)CS[C@H]12)c1csc(N)n1.O=S(=O)(O)O [Cefoselis Sulfate],0.0774
6,Nc1ncnc2c1ncn2[C@H]1O[C@H](CO)[C@@H](O)[C@H]1O [Adenosine],0.454
7,O=C(O)c1ccc(Nc2ncc3c(n2)-c2ccc(Cl)cc2C(c2c(F)cccc2F)=NC3)cc1,-2.25
8,CNC(=O)c1ccc(C)c(-n2c(C)cc(OCc3ccc(F)cc3F)c(Br)c2=O)c1,0.285
9,CCOc1cc(N)c(Cl)cc1C(=O)NCC1CN(Cc2ccc(F)cc2)CCO1.O=C(O)CC(O)(CC(=O)O)C(=O)O (stereo not given) [Mosapride Citrate],0.153
10,CC(C)(C)c1ccc(-c2nc3ccccc3[nH]2)cc1,0.448
11,COc1ccc(C(C)=O)c(O)c1 [Paeonol],0.516
12,O=C1c2ccccc2C(=O)C1c1ccccc1 [Phenindione],0.375
13,OC[C@H](O)CN1CCN(c2ccccc2)CC1 [Levodropropizine],-0.851
14,Cc1cnc(Nc2ccc(OCCN3CCCC3)cc2)nc1Nc1cccc(S(=O)(=O)NC(C)(C)C)c1,0.289
15,COC(=O)[C@H](c1ccccc1Cl)N1CCc2sccc2C1.O=S(=O)(O)O [Clopidogrel],-1.1
16,CN1CCN(S(=O)(=O)c2ccc(-c3cnc(N)c(C(=O)Nc4cccnc4)n3)cc2)CC1,-0.102
17,Cc1ccc(O)c([C@H](CCN(C(C)C)C(C)C)c2ccccc2)c1.O=C(O)[C@H](O)[C@@H](O)C(=O)O [Tolterodine tartrate],-0.0304
18,C=C[C@]1(C)C[C@@H](OC(=O)CSC(C)(C)CNC(=O)[C@H](N)C(C)C)[C@@]2(C)[C@H](C)CC[C@]3(CCC(=O)[C@H]32)[C@@H](C)[C@@H]1O.Cl [Valnemulin HCl],-0.624
19,CN1CCN(c2c(F)cc3c(=O)c(C(=O)O)cn(CCF)c3c2F)CC1 [Fleroxacin (Quinodis)],-0.464
20,CN1CCc2nc(C(=O)N[C@H]3C[C@H](C(=O)N(C)C)CC[C@@H]3NC(=O)C(=O)Nc3ccc(Cl)cn3)sc2C1 [Edoxaban],0.584

# Quoted from above, 2 compounds:
row,SMILES,Prob-Naive
5,CO/N=C(/C(=O)N[C@H]1C(=O)N2C(C(=O)O)=C(Cn3ccc(=N)n3CCO)CS[C@H]12)c1csc(N)n1.O=S(=O)(O)O [Cefoselis Sulfate],0.0774
6,Nc1ncnc2c1ncn2[C@H]1O[C@H](CO)[C@@H](O)[C@H]1O [Adenosine],0.454

# More results follow:

row,SMILES,Prob-Naive
1,CC(C)CN(C[C@@H](O)[C@H](Cc1ccccc1)NC(=O)O[C@H]1CCOC1)S(=O)(=O)c1ccc(N)cc1 [Amprenavir],0.0934
2,O=C(O)c1ccc(O)c2ncccc12,0.587
3,CN(C)Cc1ccc(S(=O)(=O)n2ccc(/C=C/C(=O)NO)c2)cc1 [Resminostat],0.446
4,Oc1c(Cl)cc(Cl)c2cccnc12 [Chloroxine],-1.59
5,Cn1c(N2CCCCS2(=O)=O)nc(C(=O)NCc2ccc(F)cc2)c(O)c1=O,-0.197
6,CCOC(=O)c1ccc(OC(=O)CCCCCNC(=N)N)cc1.CS(=O)(=O)O [Gabexate Mesylate],0.0404
7,CN(C)CC[C@H](CSc1ccccc1)Nc1ccc(S(=O)(=O)NC(=O)c2ccc(N3CCN(Cc4ccccc4-c4ccc(Cl)cc4)CC3)cc2)cc1[N+](=O)[O-],-0.746
8,CN(N=O)C(=O)N[C@@H]1[C@@H](O)[C@H](O)[C@@H](CO)O[C@@H]1O [Streptozotocin (STZ)],-0.562
9,CC(=O)Nc1cccc2c1c(Sc1ccc(Cl)cc1)c(C)n2CC(=O)O,0.105
10,Cc1nccn1CC1CCc2c(c3ccccc3n2C)C1=O (stereo not given) [Ondansetron (Zofran)],0.42
11,CCCCOc1ccc(OCCCN2CCOCC2)cc1.Cl [Pramoxine HCl],-1.65
12,Cn1cncc1[C@@](N)(c1ccc(Cl)cc1)c1ccc2c(c1)c(-c1cccc(Cl)c1)cc(=O)n2C [Tipifarnib],0.459
13,CC(=O)OCC(=O)[C@]12N=C(C)O[C@@H]1C[C@H]1[C@@H]3CCC4=CC(=O)C=C[C@]4(C)[C@@H]3[C@H](O)C[C@@]12C [Deflazacort],0.184
14,CN(C)CCCOc1nn(Cc2ccccc2)c2ccccc12.Cl [Benzydamine HCl],0.4
15,CCCCCCNC(=O)n1cc(F)c(=O)[nH]c1=O [Carmofur],-0.702
16,C#CCN[C@H]1CCc2ccccc21.CS(=O)(=O)O [Rasagiline Mesylate],-0.639
17,Cc1nc2n(c(=O)c1CCN1CCC(c3noc4cc(F)ccc34)CC1)CCC[C@H]2O [Paliperidone (Invega)],-0.148
18,Cc1nc(-c2ccc(OCC(C)C)c(C#N)c2)sc1C(=O)O [Febuxostat],-0.554
19,CCCC(CCC)C(=O)[O-].[Na+] [Valproic acid sodium salt (Sodium valproate)],-0.409
20,COc1cc2ncnc(Nc3ccc(F)c(Cl)c3)c2cc1NC(=O)/C=C/CN1CCCCC1,-0.476
